IC50 data for 1 molecule are collected here from paper PMC9278437 (Journal of Enzyme Inhibition and Medicinal Chemistry, 2022).

This test deals with WI-38 normal lung cells. Briefly: In vitro cytotoxicity against normal cells WI-38. In kind it is cell-based. The note with it: Homo sapiens, WI-38, read-out: In vitro IC50 (µM) as Mean ± SD Normal cell WI-38.

Regarding `CN[C@@H]1C[C@H]2O[C@@](C)([C@@H]1OC)n1c3ccccc3c3c4c(c5c6ccccc6n2c5c31)C(=O)NC4` [Staurosporine], the IC50 was determined as 57.6 ± 1.42 µM.
